pIC50: −log10 of the molar value.
Experiments:
[1] = tested on: LNCaP cells; assay: DNA (Hoechst 33258) fluorescence cell growth assay, Example 12; format: cell-based, human; conditions: for sensitivity to growth inhibition by SAHA: pretreatment with 20 μM Vitamin E
[2] = tested on: PC-3 cells; assay: DNA fluorescence cell growth assay; conditions: pretreatment with 20 μM Vitamin E
[3] = tested on: LNCaP cells; assay: LC-MS estimation of intracellular SAHA concentration; conditions: pretreated with 1 nM R1881; 5 μM SAHA, within 24 hours

O=C(CCCCCCC(=O)Nc1ccccc1)NO [SAHA, Suberoylanilide hydroxamic acid]
pIC50 ([1]; Homo sapiens, LNCaP, read-out: IC50 of LNCaP cell growth inhibition): > 6.00
sensitivity to growth inhibition by SAHA ([1]; androgen-treated LNCaP): markedly sensitive to growth inhibition
sensitivity to growth inhibition by SAHA ([1]; androgen-untreated LNCaP): markedly sensitive to growth inhibition
sensitivity to growth inhibition by SAHA [2]: markedly sensitive to growth inhibition
intracellular SAHA level relative to R1881 untreated cells [3]: less than half and half
